Results: US20240182472A1, “INDAZOLE PYRIDONE COMPOUNDS AND USES THEREOF” (Bluejay Therapeutics, Inc., priority 2022, published 2024)
Some results were stated once for a whole list of compounds, not compound by compound.

Test system: adeno-associated virus-hepatitis B virus (AAV-HBV) transfected mouse model
Assay: In vivo efficacy, AAV-HBV transfected mouse model, serum HBsAg
Settings: after two weeks of treatment, doses of 64 MPK BID, 32 MPK BID and 16 MPK BID, oral gavage

Compound	serum HBsAg level decrease compared with the vehicle control group
CCCCOC(=O)CCCCCCCOc1cccc2c3n(nc12)C[C@@H](C(C)(C)C)n1cc(C(=O)O)c(=O)cc1-3 [I.10, (R)-10-((8-butoxy-8-oxooctyl)oxy)-6-(tert-butyl)-2-oxo-6,7-dihydro-2H-pyrido[2′,1′:3,4]pyrazino[1,2-b]indazole-3-carboxylic acid]	0.42-0.69 Log10
CC(C)OC(=O)CCCCCCCOc1cccc2c3n(nc12)C[C@@H](C(C)(C)C)n1cc(C(=O)O)c(=O)cc1-3 [I.9, (R)-6-(tert-butyl)-10-((8-isopropoxy-8-oxooctyl)oxy)-2-oxo-6,7-dihydro-2H-pyrido[2′,1′:3,4]pyrazino[1,2-b]indazole-3-carboxylic acid]	0.42-0.69 Log10
